Test results published in PubChem BioAssay AID1671190 (National Center for Advancing Translational Sciences (NCATS), 2021).
In all, about 580,000 compounds went through this assay and about 6,100 (1.1%) were called active. Inconclusive means that the source gave no clear call. Such entries were picked first, then a sample of the others. The call rests on the fitted dose curve; in most records, active means well fitted inhibition curve with a large enough effect; inconclusive means small, poorly fitted or top-dose-only effect, or another doubt; inactive means no such curve, though single readings can be large or run the other way. Where the call is inconclusive, the potency comes from a doubtful curve fit.

By UniProt entry, the sequences of proteins in these tests, tags left out. Where a name states a change or a piece, a line headed by the entry shows the natural chain unless it says otherwise.
UniProt P18054: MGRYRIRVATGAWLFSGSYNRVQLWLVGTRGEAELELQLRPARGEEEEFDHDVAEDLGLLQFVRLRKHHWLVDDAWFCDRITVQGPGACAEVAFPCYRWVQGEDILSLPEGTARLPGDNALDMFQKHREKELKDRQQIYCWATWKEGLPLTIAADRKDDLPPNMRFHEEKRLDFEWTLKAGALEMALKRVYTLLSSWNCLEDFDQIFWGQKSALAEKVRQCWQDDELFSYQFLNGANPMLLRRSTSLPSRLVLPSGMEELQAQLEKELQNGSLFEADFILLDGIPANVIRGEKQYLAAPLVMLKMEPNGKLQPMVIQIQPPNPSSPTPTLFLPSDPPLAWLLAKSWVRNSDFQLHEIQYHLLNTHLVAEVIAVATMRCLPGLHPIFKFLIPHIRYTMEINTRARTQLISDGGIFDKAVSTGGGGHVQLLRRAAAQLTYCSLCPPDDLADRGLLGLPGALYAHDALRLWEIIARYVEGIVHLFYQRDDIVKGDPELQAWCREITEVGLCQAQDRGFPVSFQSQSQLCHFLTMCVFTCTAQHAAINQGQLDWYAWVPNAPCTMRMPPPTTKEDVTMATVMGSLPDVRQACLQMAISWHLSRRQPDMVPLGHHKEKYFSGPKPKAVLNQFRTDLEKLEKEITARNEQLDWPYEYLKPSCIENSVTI

Each molecule was assayed against Polyunsaturated fatty acid lipoxygenase ALOX12 (Homo sapiens) (UniProt P18054) (assay: Primary qHTS assay for inhibitors of human arachidonate 12S-lipoxygenase (ALOX12): Round 2). Conditions: purified 12hLO, xylenol orange hydroperoxide absorbance; activity change, negative = inhibition: at 108 µM (top of the series) unless noted.
Method in brief: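 Purified human 12hLO (150 nM final) in 25 mM Hepes, 0.01% Triton X-100, pH 7.0 was preincubated 15 min at room temperature with compound. Then 40 uM arachidonic acid was added, 30 min. Hydroperoxide was read by Fe-XO absorbance ratio 573/405 nm.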
On the % scale 0 is the no-effect control and ±100 the full control effect; potency means the concentration at half of the fitted maximal effect.

Structure (SMILES)	Potency	activity change, negative = inhibition
COc1ccccc1CCC(=O)OCc1csc(CC(=O)Nc2ccccc2C)n1	inconclusive: 3.55 µM [inhibitor, full curve, poor fit]	
Cc1ccc(S(=O)(=O)Nc2nc(C)c(NC(=O)OCCCl)s2)cc1	inconclusive: 89.1 µM [inhibitor, single point]	
COc1ccc(NC(=S)N(CCc2c(C)[nH]c3ccccc23)Cc2ccco2)cc1		inactive: 40.5%
Cc1ccc(C(=O)Oc2cccc(C)c2C)cc1I	inconclusive: 100 µM [inhibitor, partial curve, poor fit]	
CC(=O)c1cccc(NC(=O)CSc2nc(-c3ccccc3C)nc3cc(=O)[nH]n23)c1	inconclusive: 44.7 µM [inhibitor, partial curve, poor fit]	
COc1ccc(CNC(=O)c2ccc3c(c2)NC(=O)CS3)cc1OC	inconclusive: 5.62 µM [inhibitor, full curve, poor fit]	
CC(C)CCC(=O)NCC(C)N1CCCC1 (centres undefined)		inactive: -85.6%
COc1ccc2[nH]c(=S)[nH]c2c1	inconclusive: 100 µM [inhibitor, single point]	
COc1cc(C=O)ccc1OS(=O)(=O)c1ccccc1[N+](=O)[O-]		inactive: -13.3%
COCc1cc(=O)n2[nH]c(SCc3ccccc3)nc2n1	inconclusive: 79.4 µM [inhibitor, single point]	
O=S(=O)(N/N=C\c1ccc2c(c1)OCO2)c1ccc(F)cc1	inconclusive: 39.8 µM [inhibitor, single point]	
CCCC(=O)Nc1ccc(-c2csc(N)n2)cc1	inconclusive: 79.4 µM [inhibitor, single point]	
O=C(Nc1cccc(CNCc2ccccn2)c1)c1cccc(F)c1		inactive: 52.2%
CC(=O)NCCNC(=O)c1ccc2c(c1)S(=O)(=O)c1ccccc1C2=O	inconclusive: 28.2 µM [inhibitor, single point]	
Brc1ccc(Cn2c(-c3cncs3)nc3ccccc32)cc1	inconclusive: 39.8 µM [inhibitor, partial curve, poor fit]	
O=C(Cc1ccc(F)cc1)Nc1c(C(=O)N2CCN(c3ncccn3)CC2)oc2ccccc12	inconclusive: 63.1 µM [inhibitor, partial curve, poor fit]	
COc1ccc(Cn2c(C3CCN(C(=O)c4ccc(C)cc4C)CC3)n[nH]c2=O)cc1	inconclusive: 8.91 µM [inhibitor, partial curve, poor fit]	
OC(C#CCN1CCCC1)(c1ccccc1)c1cccnc1 (centres undefined)	inconclusive: 112 µM [inhibitor, single point]	
CCOC(=O)Nc1ccc2c(CN3C(=O)NC(CC)(CC)C3=O)cc(=O)oc2c1		inactive: -17.1%
CCOc1ccc(C(CC(=O)O)NC(=O)c2ccccc2F)cc1 (centres undefined)	inconclusive: 100 µM [inhibitor, single point]	
COc1cccc(-c2nc(S(=O)(=O)c3ccccc3)c(N3CCCCC3)o2)c1		inactive: -16.2%
CCNc1ncc2nc(-c3ccc(F)cc3)c(=O)n(Cc3ccc(F)cc3)c2n1	inconclusive: 31.6 µM [inhibitor, partial curve, poor fit]	
O=C(COC(=O)c1ccc(S(=O)(=O)N2CCCC2)cc1)Nc1ccc(Cl)cc1	inconclusive: 100 µM [inhibitor, single point]	

Structure (SMILES)	Potency	activity change, negative = inhibition
O=C(N/C(=C\c1ccco1)C(=O)N1CCOCC1)c1ccc([N+](=O)[O-])cc1	inconclusive: 50.1 µM [inhibitor, partial curve, poor fit]	
CC1C(=O)Nc2ccc(S(=O)(=O)N3CCN(c4cccc(C(F)(F)F)c4)CC3)cc2NC1=O (centres undefined)		inactive: 8.21%
CCCCC1CCC(C(=O)OCC(=O)N(CCOC)c2c(N)n(Cc3ccccc3)c(=O)[nH]c2=O)CC1 (centres undefined)		inactive: 0.857%
O=C(COc1ccc(C(=O)c2ccccc2)cc1)OCCOc1cccc(Cl)c1		inactive: -20%
CCOC(=O)C1=C(c2ccccc2)OC(=C(C(F)(F)F)C(F)(F)F)S1	inconclusive: 50.1 µM [inhibitor, single point]	
CCc1ccc(CNC(=O)c2c3c(nc4ccccc24)C(=O)N(C2CCCCC2)C3)cc1	inconclusive: 126 µM [inhibitor, single point]	
CCCN(Cc1nnc(-c2ccccc2Cl)o1)C(=O)c1ccc(F)cc1Cl		inactive: -30.4%
CC1CC1C(=O)OCC(=O)Nc1ccc(N=Nc2ccccc2)cc1 (centres undefined)		inactive: 17.7%
Clc1ccc(OCCN2CCCCC2)cc1Cl	inconclusive: 1.58 µM [inhibitor, full curve]	
CC(C)NCC1(COc2ccc(C(F)(F)F)cn2)C[C@@H](O)[C@@H](O)C1 (some centres undefined)	inconclusive: 7.94 µM [inhibitor, full curve]	
CCOC(=O)c1ccc(N2C(=O)c3[nH]nc(-c4ccc(C)cc4)c3C2c2ccc(O)c(OCC)c2)cc1 (centres undefined)		inactive: -8.49%
CCOc1ccccc1NC(=O)CSCc1cc(=O)n2cccc(C)c2n1		inactive: -13.1%
CCOC(=O)c1c(C)[nH]c(C)c1S(=O)(=O)N(C)CC(=O)Nc1cc(Cl)ccc1C	inconclusive: 158 µM [inhibitor, partial curve, poor fit]	
O=C(CCc1ccco1)Nc1ccc(N2CCOCC2)cn1		inactive: -37.3%
COc1ccc(NC2(c3ccc(Cl)cc3)C(=O)c3ccccc3C2=O)cc1		inactive: 15.4%
N#Cc1ccc(COc2ccccc2C(N)=O)cc1		inactive: 66.6%
Cc1ccc(N(CC(=O)N2CCCCCC2)S(C)(=O)=O)c(C)c1	inconclusive: 70.8 µM [inhibitor, partial curve, poor fit]	
O=C(Nc1nc2ccc(Cl)cc2s1)c1ccc(N2CCCCC2)c([N+](=O)[O-])c1		inactive: -4.92%
Cc1ccc(NS(=O)(=O)c2ccc(-c3cnc(C4CC4)o3)cc2)c(C)c1		inactive: -27.3%
CCOc1ccccc1CNC(=O)Cc1ccc(NC(=O)N2CCCCc3ccccc32)cc1	inconclusive: 112 µM [inhibitor, partial curve, poor fit]	
Cc1ccc(-c2nn(CCC(=O)N3CCN(Cc4ccccc4)CC3)c(=O)c3ccccc23)cc1	inconclusive: 141 µM [inhibitor, single point]	
O=C1C(O)=C(O)C(=O)c2ccccc21	inconclusive: 39.8 µM [inhibitor, partial curve, poor fit]	
CCCCOC(=O)C(C)Oc1ccc2c(=O)c(Oc3ccc(C(C)(C)C)cc3)coc2c1 (centres undefined)		inactive: -10.7%

Structure (SMILES)	Potency	activity change, negative = inhibition
O=c1[nH]c(=S)c2c(n1-c1ccccc1)CCC2	inconclusive: 10 µM [inhibitor, full curve, poor fit]	
Cc1nnc(SCC(=O)Nc2c(Cl)cccc2Cl)[nH]c1=O	inconclusive: 112 µM [inhibitor, single point]	
CN(Cc1ccco1)c1cc(-c2ccc3c(c2)OCO3)ncn1	inconclusive: 12.6 µM [inhibitor, full curve, poor fit]	
C[n+]1cn(/N=C/c2ccccc2)c2ccccc21	inconclusive: 89.1 µM [inhibitor, partial curve, poor fit]	
CC(=O)c1ccc(OC(=O)C2c3ccccc3Oc3ccccc32)cc1	inconclusive: 8.91 µM [inhibitor, partial curve, poor fit]	
NC(=O)CC(NC(=O)c1ccc(Br)cc1)c1ccc(NCCc2ccc(F)cc2)c([N+](=O)[O-])c1 (centres undefined)	inconclusive: 79.4 µM [inhibitor, single point]	
Cc1cccc(C2=NN(c3ccccc3)[C@@H](C(=O)N3CCOC3=O)[C@@H]2c2ccc(F)cc2)c1	inconclusive: 112 µM [inhibitor, single point]	
O=C(O)[C@@H]1CN(Cc2ccccc2)C[C@@H]1C(=O)N1CCc2ccccc21		inactive: -15%
Cc1ccsc1-c1[nH]nc2ncc(-c3ccccc3)nc12	inconclusive: 39.8 µM [inhibitor, full curve]	
O=C(O)CCc1ccc(-c2ccc(Cl)cc2)n1CC(=O)O	inconclusive: 44.7 µM [inhibitor, partial curve]	
Cc1ccc(SCCN2CCN(C)CC2)cc1	active: 39.8 µM	
CCC(NCc1ccc(C(N)=O)cc1)c1ccc(Cl)cc1 (centres undefined)	inconclusive: 39.8 µM [inhibitor, partial curve, poor fit]	
CCn1nccc1C(=O)N1C[C@@H](Oc2ccccc2)C[C@@H]1C(=O)NC		inactive: 10.8%
CSC1=NC2(CC(c3ccccc3)Oc3cc(O)ccc32)CC(C)(C)N1 (centres undefined)		inactive: -27.7%
Cc1noc(C)c1-c1cc2c(cc(C)n2CCN(C)C)c(-c2ccc(CO)cc2)n1	inconclusive: 39.8 µM [inhibitor, full curve]	
Cc1cc(C(=O)OCC(=O)NC(C)C)c(C)o1		inconclusive: -35.6% [inhibitor]
CC(=O)c1cccc(OCC(O)CNCCc2ccc(Cl)cc2)c1 (centres undefined)	inconclusive: 17.8 µM [inhibitor, full curve]	
CCOc1ccccc1OCCCC(=O)Oc1ccc(-c2ccc(C#N)cc2)cc1		inactive: -22.8%
CCc1ccc2c(c1)C(C)=CC(C)(C)N2	inconclusive: 31.6 µM [inhibitor, partial curve, poor fit]	
COc1cccc2cc(-c3csc(-c4ccc(F)cc4)n3)c(=O)oc12	inconclusive: 89.1 µM [inhibitor, single point]	
Cc1cccc(NC(=O)c2ccc3[nH]c(C)c(C)c3c2)c1	inconclusive: 56.2 µM [inhibitor, partial curve, poor fit]	
COc1ccc(NC2=NC3(CCCCC3)N=C(N)N2)cc1		inactive: -14.6%
CCN(CC)S(=O)(=O)c1ccc(S(=O)(=O)Nc2c(C)cccc2C)cc1	inconclusive: 112 µM [inhibitor, single point]	

21 entries from above, with bars between the fields.
Structure (SMILES) | Potency | activity change, negative = inhibition
CCCCOC(=O)C(C)Oc1ccc2c(=O)c(Oc3ccc(C(C)(C)C)cc3)coc2c1 (centres undefined) |  | inactive: -10.7%
O=c1[nH]c(=S)c2c(n1-c1ccccc1)CCC2 | inconclusive: 10 µM [inhibitor, full curve, poor fit] | 
Cc1nnc(SCC(=O)Nc2c(Cl)cccc2Cl)[nH]c1=O | inconclusive: 112 µM [inhibitor, single point] | 
CN(Cc1ccco1)c1cc(-c2ccc3c(c2)OCO3)ncn1 | inconclusive: 12.6 µM [inhibitor, full curve, poor fit] | 
C[n+]1cn(/N=C/c2ccccc2)c2ccccc21 | inconclusive: 89.1 µM [inhibitor, partial curve, poor fit] | 
CC(=O)c1ccc(OC(=O)C2c3ccccc3Oc3ccccc32)cc1 | inconclusive: 8.91 µM [inhibitor, partial curve, poor fit] | 
NC(=O)CC(NC(=O)c1ccc(Br)cc1)c1ccc(NCCc2ccc(F)cc2)c([N+](=O)[O-])c1 (centres undefined) | inconclusive: 79.4 µM [inhibitor, single point] | 
O=C(O)[C@@H]1CN(Cc2ccccc2)C[C@@H]1C(=O)N1CCc2ccccc21 |  | inactive: -15%
Cc1ccsc1-c1[nH]nc2ncc(-c3ccccc3)nc12 | inconclusive: 39.8 µM [inhibitor, full curve] | 
O=C(O)CCc1ccc(-c2ccc(Cl)cc2)n1CC(=O)O | inconclusive: 44.7 µM [inhibitor, partial curve] | 
Cc1ccc(SCCN2CCN(C)CC2)cc1 | active: 39.8 µM | 
CCn1nccc1C(=O)N1C[C@@H](Oc2ccccc2)C[C@@H]1C(=O)NC |  | inactive: 10.8%
CSC1=NC2(CC(c3ccccc3)Oc3cc(O)ccc32)CC(C)(C)N1 (centres undefined) |  | inactive: -27.7%
Cc1noc(C)c1-c1cc2c(cc(C)n2CCN(C)C)c(-c2ccc(CO)cc2)n1 | inconclusive: 39.8 µM [inhibitor, full curve] | 
Cc1cc(C(=O)OCC(=O)NC(C)C)c(C)o1 |  | inconclusive: -35.6% [inhibitor]
CC(=O)c1cccc(OCC(O)CNCCc2ccc(Cl)cc2)c1 (centres undefined) | inconclusive: 17.8 µM [inhibitor, full curve] | 
CCOc1ccccc1OCCCC(=O)Oc1ccc(-c2ccc(C#N)cc2)cc1 |  | inactive: -22.8%
CCc1ccc2c(c1)C(C)=CC(C)(C)N2 | inconclusive: 31.6 µM [inhibitor, partial curve, poor fit] | 
COc1cccc2cc(-c3csc(-c4ccc(F)cc4)n3)c(=O)oc12 | inconclusive: 89.1 µM [inhibitor, single point] | 
COc1ccc(NC2=NC3(CCCCC3)N=C(N)N2)cc1 |  | inactive: -14.6%
CCN(CC)S(=O)(=O)c1ccc(S(=O)(=O)Nc2c(C)cccc2C)cc1 | inconclusive: 112 µM [inhibitor, single point] | 
